From the supplement of paper PMC4604168 (melanoma cell lines)
Some of the results follow. Single values are uncertain, as repeats are few or missing.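 Cells were imaged in 1,536-well plates, and nuclei stained with an antibody against cleaved PARP were counted against all DNA-stained nuclei to give the apoptosis fraction. Screening doses were chosen to leave most cells alive, and resting and induced cleaved-PARP levels differ strongly between cell lines.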

Experiments:
Test in all cases: cleaved PARP positive nuclei fraction relative to DMSO control; melanoma cells; higher = more apoptosis
Conditions in all cases: library dose: low library concentration; 72 h
WM115 = tested on: WM115
WM1716 = tested on: WM1716
WM1745 = tested on: WM1745
WM3526 = tested on: WM3526
WM3619 = tested on: WM3619
WM451Lu = tested on: WM451Lu

Structure (SMILES) | cleaved PARP positive nuclei fraction (WM115) [%] | cleaved PARP positive nuclei fraction (WM1716) [%] | cleaved PARP positive nuclei fraction (WM1745) [%] | cleaved PARP positive nuclei fraction (WM3526) [%] | cleaved PARP positive nuclei fraction (WM3619) [%] | cleaved PARP positive nuclei fraction (WM451Lu) [%]
Cn1cnc2c(F)c(Nc3ccc(Br)cc3Cl)c(C(=O)NOCCO)cc21 [selumetinib] + CO[C@@H]1[C@H](N(C)C(=O)c2ccccc2)C[C@H]2O[C@]1(C)n1c3ccccc3c3c4c(c5c6ccccc6n2c5c31)C(=O)NC4 [Midostaurin] (first compound 0.015 µM, partner dose 0.08 µM) | 213 | 103 | 135 | 122 | 96.7 | 426
Cn1sc(=O)n(Cc2ccccc2)c1=O + COC(=O)c1sccc1S(=O)(=O)Nc1ccc(Nc2ccccc2)cc1OC [GSK0660] (first compound 0.4 µM, partner dose 1 µM) | 54.6 | 49.5 | 89.5 | 72.3 | 146 | 97.9
NC1(c2ccc(-c3nc4ccn5c(=O)[nH]nc5c4cc3-c3ccccc3)cc2)CCC1 + COc1ccc(-c2ccc3c(N4CCOCC4)nc(N4C[C@@H](C)O[C@@H](C)C4)nc3n2)cc1CO [KU0063794] (first compound 0.4 µM, partner dose 0.02 µM) | 268 | 109 | 103 | 111 | 124 | 134
Cn1cnc2c(F)c(Nc3ccc(Br)cc3Cl)c(C(=O)NOCCO)cc21 [selumetinib] + O=C(O)c1ccc(-c2c[nH]c3ncc(-c4ccccc4)cc23)cc1C1CCCC1 [GSK650394] (first compound 0.015 µM, partner dose 0.16 µM) | 99.8 | 91 | 80.1 | 149 | 102 | 24.4
Cn1cnc2c(F)c(Nc3ccc(Br)cc3Cl)c(C(=O)NOCCO)cc21 [selumetinib] + CCc1ccc(CCOc2ccc(CC3SC(=O)NC3=O)cc2)nc1 [pioglitazone] (first compound 0.015 µM, partner dose 2 µM) | 177 | 63.9 | 99.2 | 99.2 | 145 | 359
CCN(CC)CCNC(=O)c1c(C)[nH]c(/C=C2\C(=O)Nc3ccc(F)cc32)c1C [sunitinib] + C#Cc1cccc(Nc2ncnc3cc(OCCOC)c(OCCOC)cc23)c1 [erlotinib] (first compound 0.4 µM, partner dose 0.8 µM) | 113 | 56.3 | 146 | 60.1 | 102 | 102
CC(=O)O[C@@]12CO[C@@H]1C[C@H](O)[C@@]1(C)C(=O)[C@H](O)C3=C(C)[C@@H](OC(=O)[C@H](O)[C@@H](NC(=O)OC(C)(C)C)c4ccccc4)C[C@@](O)([C@@H](OC(=O)c4ccccc4)[C@H]21)C3(C)C [Docetaxel] + Oc1cc(-c2nc(-c3ccccc3)[nH]c2-c2ccncc2)ccc1Cl [L779450] (first compound 0.0001 µM, partner dose 0.2 µM) | 754 | 710 | 213 | 403 | 142 | 189
CCN(CC)CCNC(=O)c1c(C)[nH]c(/C=C2\C(=O)Nc3ccc(F)cc32)c1C [sunitinib] + O=C(O)c1ccc(-c2c[nH]c3ncc(-c4ccccc4)cc23)cc1C1CCCC1 [GSK650394] (first compound 0.4 µM, partner dose 0.16 µM) | 31.3 | 49.7 | 139 | 219 | 99.8 | 44.3
C[C@@H](N)c1ccc(C(=O)Nc2ccnc3[nH]ccc23)cc1 + CN(c1ncccc1CNc1nc(Nc2ccc3c(c2)CC(=O)N3)ncc1C(F)(F)F)S(C)(=O)=O [PF562271] (first compound 0.4 µM, partner dose 0.08 µM) | 66.1 | 143 | 172 | 77.5 | 93.2 | 49.4
NC1(c2ccc(-c3nc4ccn5c(=O)[nH]nc5c4cc3-c3ccccc3)cc2)CCC1 + CC(C)C[C@H](NC(=O)[C@H](Cc1ccccc1)NC(=O)c1cnccn1)B(O)O [Bortezomib] (first compound 0.4 µM, partner dose 0.001 µM) | 272 | 236 | 112 | 56.2 | 167 | 194
Cn1cnc2c(F)c(Nc3ccc(Br)cc3Cl)c(C(=O)NOCCO)cc21 [selumetinib] + O=C1NC(=O)/C(=C/c2ccc(-c3ccc(F)cc3O)o2)S1 [AS252424] (first compound 0.015 µM, partner dose 1 µM) | 138 | 51.9 | 91.3 | 139 | 136 | 96.3
CC(=O)O[C@@]12CO[C@@H]1C[C@H](O)[C@@]1(C)C(=O)[C@H](O)C3=C(C)[C@@H](OC(=O)[C@H](O)[C@@H](NC(=O)OC(C)(C)C)c4ccccc4)C[C@@](O)([C@@H](OC(=O)c4ccccc4)[C@H]21)C3(C)C [Docetaxel] + COc1ccc(-c2ccc3c(N4CCOCC4)nc(N4C[C@@H](C)O[C@@H](C)C4)nc3n2)cc1CO [KU0063794] (first compound 0.0001 µM, partner dose 0.02 µM) | 356 | 1060 | 183 | 383 | 135 | 305
CC1(C)CCC(c2ccc(Cl)cc2)=C(CN2CCN(c3ccc(C(=O)NS(=O)(=O)c4ccc(N[C@H](CCN5CCOCC5)CSc5ccccc5)c(S(=O)(=O)C(F)(F)F)c4)cc3)CC2)C1 + NC1(c2ccc(-c3nc4ccn5c(=O)[nH]nc5c4cc3-c3ccccc3)cc2)CCC1 [MK2206] (first compound 0.4 µM, partner dose 0.4 µM) | 849 | 425 | 2490 | 107 | 133 | 214
